Measured values published in patent US5092876A, “Cell attachment peptides derived from amyloid P component” (The United States of America as represented by the …, priority 1989, dated 1992).
Not every detail of the peptide structures is certain; ends, links or a residue may be inferred. Ends that are not written are not given here.

Key:
HT-1090 (Fibrosarcoma) = test: Attachment of various cell types to SAP-1; assay type: cell-based; settings: SAP-1 coated at 100 ug/ml, 1×10^5 cells, blank subtracted
Hs 294T (Melanoma human) = test: Attachment of various cell types to SAP-1; assay type: cell-based; settings: SAP-1 coated at 100 ug/ml, 1×10^5 cells, blank subtracted
SK-N-MC (Neuroblastoma) = test: Attachment of various cell types to SAP-1; assay type: cell-based, human; settings: SAP-1 coated at 100 ug/ml, 1×10^5 cells, blank subtracted
Human skin fibroblasts = test: Attachment of various cell types to SAP-1; assay type: cell-based; settings: SAP-1 coated at 100 ug/ml, 1×10^5 cells, blank subtracted
variety of cells = test: Adhesivity of a variety of cells to SAP-1 (summary over all cell types); assay type: cell-based
B16F10 (Melanoma, mouse) = test: Attachment of various cell types to SAP-1; assay type: cell-based; settings: SAP-1 coated at 100 ug/ml, 1×10^5 cells, blank subtracted
A-498 (Kidney sarcoma) = test: Attachment of various cell types to SAP-1; assay type: cell-based; settings: SAP-1 coated at 100 ug/ml, 1×10^5 cells, blank subtracted
[1] = system: BHK (Fibroblasts, baby hamster kidney); test: Attachment of various cell types to SAP-1; assay type: cell-based; settings: SAP-1 coated at 100 ug/ml, 1×10^5 cells, blank subtracted
Human osteoblasts = test: Attachment of various cell types to SAP-1; assay type: cell-based; settings: SAP-1 coated at 100 ug/ml, 1×10^5 cells, blank subtracted
RD-ES (Ewing's sarcoma) = test: Attachment of various cell types to SAP-1; assay type: cell-based; settings: SAP-1 coated at 100 ug/ml, 1×10^5 cells, blank subtracted
cells [2] = test: Effect of peptide concentration on cell attachment (FIG. 1); assay type: cell-based
BT-20 (Breast carcinoma) = test: Attachment of various cell types to SAP-1; assay type: cell-based; settings: SAP-1 coated at 100 ug/ml, 1×10^5 cells, blank subtracted
cells [3] = test: Cell attachment assay, peptides/proteins from amyloid P component coated on plates (Table I); assay type: cell-based; settings: for No. attached cells: plates coated with peptide/protein (20 uM), average ± SEM
Procedure: All cell types used were obtained from American Type Culture Collection, Rockville, Md. and were maintained in Dulbecco's modified Eagle's medium (DMEM) supplemented with 10% fetal calf serum (FCS). The cells were grown to approximately 80% confluency in Falcon T75 flasks. For cell attachment assays, cells were washed with PBS (pH 7.4), and then detached from the tissue culture flasks with 0.025% trypsin, 0.025% EDTA.
The cells were sedimented by low speed centrifugation, suspended in serum-free Eagle's minimal essential medium (EMEM) containing 0.05% BSA and used immediately in the cell attachment assays.
Cell attachment was assayed as described by Graf et al., Biochemistry 26, 6896-6900 (1987). 24 well plastic culture plates (Linbro, Flow Laboratories, Inc., Va.) were coated with the desired peptides at 25° C. for 16 h in 0.1M bicarbonate buffer, pH 9.6. Exposed non-specific cell attachment sites were blocked by coating the wells with 3% BSA for 1 h at 25° C. Cells, (1.1×10^5), prepared as described above, were added to each well and incubated at 37° C. for 1 h in a humidified incubator with 5% CO2 --95% air mixture. At the end of incubation, plates were gently washed twice with PBS to remove unattached cells. Attached cells were treated with trypsin and electronically counted. […] Each peptide was tested for cell attachment in six separate experiments.
Tissue culture plates (obtained from Linbro, Flow Laboratories, Inc., Va.) were coated with peptides or proteins at […]. Before coating (a) AP was denatured with 6M Guanidine HCl (GnHCl) for 2 h at 4° C. GnHCl was removed by extensive dialysis against 0.1M bicarbonate buffer, pH 9.6 at 4° C.; (b) AP was heat-denatured at 100° C. for 15 min.; (c) native AP was reduced and the free sulfhydryl groups were blocked by carboxymethylation, and (d) heat-denatured AP was treated as in (c). The values are expressed as the average ± SEM, and are reported hereinbelow in Table I.

cells [4] = test: Cell attachment to peptide-coated plates preincubated with fibronectin (FIG. 2); assay type: cell-based; settings: peptide-coated polystyrene plates preincubated with fibronectin, cells attach at 37° C. for 10 minutes

Row | Substance | % cells attached (HT-1090 (Fibrosarcoma)) | % cells attached (Hs 294T (Melanoma human)) | % cells attached (SK-N-MC (Neuroblastoma)) | % cells attached (Human skin fibroblasts) | attachment, % of total cells (variety of cells; all of the cell types studied) | cell spreading after attachment (variety of cells; of the cells tested) | % cells attached (B16F10 (Melanoma, mouse)) | % cells attached (A-498 (Kidney sarcoma)) | % cells attached [1] | % cells attached (Human osteoblasts) | % cells attached (RD-ES (Ewing's sarcoma)) | peptide concentration at which cell attachment reached a near maximum (cells [2]) | % cells attached (BT-20 (Breast carcinoma)) | ability to promote cell attachment (cells [3]; coated at the same molar concentration (20 uM)) | No. attached cells (cells [3]) | cell attachment in presence of fibronectin (cells [4])
1 | EKPLQNFTLCFR-NH2 [SAP-1, Glu-Lys-Pro-Leu-Gln-Asn-Phe-Thr-Leu-Cys-Phe-Arg] | 69% | 63% | 73% | 81% | 65-85% | many spread after their attachment | 73% | 75% | 68% | 85% | 81% | approximately 100 ug/ml | 67% | able to promote the cell attachment | 15310 ± 817 | enhanced the cell attachment
2 | NGTPLVKK-NH2 [SAP-3, reference compound] | – | – | – | – | – | – | – | – | – | – | – | – | – | – | 2427 ± 267 | –
